In the supplement of paper PMC10849652:
This is one part of the list. Residues, ends and D or L forms follow the SMILES beside them. *: point of attachment. Cbz = O=C(OCc1ccccc1)*

The chains behind the UniProt entries cited, without tags or fusion partners. Where a name states a change or a piece, a line headed by the entry shows the natural chain unless it says otherwise.
UniProt Q12907: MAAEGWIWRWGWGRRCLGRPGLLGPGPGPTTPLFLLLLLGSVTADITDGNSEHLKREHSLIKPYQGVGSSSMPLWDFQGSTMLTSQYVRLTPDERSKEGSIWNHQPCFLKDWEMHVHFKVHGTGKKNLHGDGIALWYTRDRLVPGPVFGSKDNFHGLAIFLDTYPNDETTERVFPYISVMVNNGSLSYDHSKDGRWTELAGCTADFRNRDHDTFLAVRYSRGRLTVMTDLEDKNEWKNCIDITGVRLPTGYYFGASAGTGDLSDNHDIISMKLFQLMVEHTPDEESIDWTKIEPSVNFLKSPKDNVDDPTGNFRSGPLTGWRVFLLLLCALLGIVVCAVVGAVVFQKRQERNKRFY
UniProt P53671: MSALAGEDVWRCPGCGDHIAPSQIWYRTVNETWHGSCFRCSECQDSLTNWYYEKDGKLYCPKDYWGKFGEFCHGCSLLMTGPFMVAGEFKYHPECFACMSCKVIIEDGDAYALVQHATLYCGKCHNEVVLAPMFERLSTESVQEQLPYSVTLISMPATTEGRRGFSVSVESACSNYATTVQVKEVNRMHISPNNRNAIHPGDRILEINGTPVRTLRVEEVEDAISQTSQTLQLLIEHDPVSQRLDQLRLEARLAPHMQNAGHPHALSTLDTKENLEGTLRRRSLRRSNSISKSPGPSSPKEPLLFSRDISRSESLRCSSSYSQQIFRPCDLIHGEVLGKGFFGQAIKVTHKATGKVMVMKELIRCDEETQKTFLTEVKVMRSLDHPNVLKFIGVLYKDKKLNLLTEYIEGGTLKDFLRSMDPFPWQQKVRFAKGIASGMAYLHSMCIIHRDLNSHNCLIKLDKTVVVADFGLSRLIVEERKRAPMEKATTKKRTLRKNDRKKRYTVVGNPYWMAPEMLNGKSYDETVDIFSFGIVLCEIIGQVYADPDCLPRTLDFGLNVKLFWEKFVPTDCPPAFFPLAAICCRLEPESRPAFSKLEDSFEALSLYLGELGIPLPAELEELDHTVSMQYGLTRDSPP
UniProt P01130: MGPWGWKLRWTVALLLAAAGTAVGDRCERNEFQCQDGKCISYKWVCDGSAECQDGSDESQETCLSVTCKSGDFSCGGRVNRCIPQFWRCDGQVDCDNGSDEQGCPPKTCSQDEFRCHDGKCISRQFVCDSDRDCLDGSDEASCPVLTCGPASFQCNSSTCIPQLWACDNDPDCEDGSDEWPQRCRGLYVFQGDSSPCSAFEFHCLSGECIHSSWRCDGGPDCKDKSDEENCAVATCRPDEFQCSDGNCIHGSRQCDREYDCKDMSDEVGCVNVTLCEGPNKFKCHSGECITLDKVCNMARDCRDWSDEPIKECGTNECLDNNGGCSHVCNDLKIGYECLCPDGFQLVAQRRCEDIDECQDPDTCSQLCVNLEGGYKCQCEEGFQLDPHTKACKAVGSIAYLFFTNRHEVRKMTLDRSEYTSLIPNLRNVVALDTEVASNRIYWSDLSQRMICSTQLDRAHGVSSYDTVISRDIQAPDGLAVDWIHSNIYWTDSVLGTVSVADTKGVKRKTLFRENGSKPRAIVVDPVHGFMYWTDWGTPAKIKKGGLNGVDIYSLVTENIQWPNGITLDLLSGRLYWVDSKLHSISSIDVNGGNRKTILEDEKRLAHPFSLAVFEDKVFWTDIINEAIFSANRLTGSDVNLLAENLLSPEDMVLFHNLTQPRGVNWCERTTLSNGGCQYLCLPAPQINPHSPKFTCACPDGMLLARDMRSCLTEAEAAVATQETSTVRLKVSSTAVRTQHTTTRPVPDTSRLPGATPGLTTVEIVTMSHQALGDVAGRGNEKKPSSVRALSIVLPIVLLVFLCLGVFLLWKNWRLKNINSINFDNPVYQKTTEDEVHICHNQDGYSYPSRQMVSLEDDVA
UniProt Q14657: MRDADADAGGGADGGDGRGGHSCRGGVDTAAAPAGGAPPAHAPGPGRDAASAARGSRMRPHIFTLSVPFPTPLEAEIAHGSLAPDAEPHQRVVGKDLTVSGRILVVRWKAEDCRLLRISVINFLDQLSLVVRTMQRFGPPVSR
UniProt P07942: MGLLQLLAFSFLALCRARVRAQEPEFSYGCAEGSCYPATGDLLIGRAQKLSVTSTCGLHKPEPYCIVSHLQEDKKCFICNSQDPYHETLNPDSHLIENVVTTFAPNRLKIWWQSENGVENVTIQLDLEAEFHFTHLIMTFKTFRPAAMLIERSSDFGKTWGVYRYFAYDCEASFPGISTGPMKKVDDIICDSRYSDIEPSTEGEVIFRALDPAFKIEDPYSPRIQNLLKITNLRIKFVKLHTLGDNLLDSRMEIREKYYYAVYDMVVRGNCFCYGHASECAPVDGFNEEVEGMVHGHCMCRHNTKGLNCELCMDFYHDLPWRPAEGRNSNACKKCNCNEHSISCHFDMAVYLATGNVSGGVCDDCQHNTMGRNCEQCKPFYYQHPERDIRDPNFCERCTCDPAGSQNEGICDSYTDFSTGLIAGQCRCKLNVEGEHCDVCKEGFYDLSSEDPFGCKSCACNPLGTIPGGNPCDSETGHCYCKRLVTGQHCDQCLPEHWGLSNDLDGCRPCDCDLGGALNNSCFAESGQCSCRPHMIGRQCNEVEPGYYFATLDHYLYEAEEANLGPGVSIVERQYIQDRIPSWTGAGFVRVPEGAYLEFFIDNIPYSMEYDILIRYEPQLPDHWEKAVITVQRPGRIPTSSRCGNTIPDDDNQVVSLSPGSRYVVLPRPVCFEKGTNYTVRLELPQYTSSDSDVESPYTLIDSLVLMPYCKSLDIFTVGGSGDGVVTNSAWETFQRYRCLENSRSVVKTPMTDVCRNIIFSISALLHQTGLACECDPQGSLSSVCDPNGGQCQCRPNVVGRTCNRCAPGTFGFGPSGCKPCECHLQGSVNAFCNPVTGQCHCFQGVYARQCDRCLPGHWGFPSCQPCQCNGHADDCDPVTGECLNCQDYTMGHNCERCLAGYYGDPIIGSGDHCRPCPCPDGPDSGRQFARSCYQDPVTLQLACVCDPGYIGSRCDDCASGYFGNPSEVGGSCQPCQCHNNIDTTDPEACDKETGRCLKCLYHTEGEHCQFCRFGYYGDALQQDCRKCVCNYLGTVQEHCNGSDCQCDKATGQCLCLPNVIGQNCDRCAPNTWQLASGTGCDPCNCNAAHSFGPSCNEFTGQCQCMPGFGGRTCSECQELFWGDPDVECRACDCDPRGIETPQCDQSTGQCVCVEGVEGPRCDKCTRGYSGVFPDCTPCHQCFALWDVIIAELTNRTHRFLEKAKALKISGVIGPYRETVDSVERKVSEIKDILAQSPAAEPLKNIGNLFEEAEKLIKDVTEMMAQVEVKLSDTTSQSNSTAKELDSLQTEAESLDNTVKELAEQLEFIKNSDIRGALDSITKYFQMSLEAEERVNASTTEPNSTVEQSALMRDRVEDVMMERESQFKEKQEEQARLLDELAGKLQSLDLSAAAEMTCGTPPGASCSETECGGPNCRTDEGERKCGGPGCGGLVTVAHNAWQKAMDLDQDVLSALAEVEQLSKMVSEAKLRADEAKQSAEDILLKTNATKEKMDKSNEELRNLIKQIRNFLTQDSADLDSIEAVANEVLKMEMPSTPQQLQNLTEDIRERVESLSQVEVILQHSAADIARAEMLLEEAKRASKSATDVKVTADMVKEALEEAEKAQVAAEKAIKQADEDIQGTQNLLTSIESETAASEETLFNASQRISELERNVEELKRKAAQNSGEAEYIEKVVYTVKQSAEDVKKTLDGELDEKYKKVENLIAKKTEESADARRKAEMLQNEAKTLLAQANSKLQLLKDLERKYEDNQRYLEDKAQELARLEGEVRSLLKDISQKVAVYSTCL
UniProt Q03252: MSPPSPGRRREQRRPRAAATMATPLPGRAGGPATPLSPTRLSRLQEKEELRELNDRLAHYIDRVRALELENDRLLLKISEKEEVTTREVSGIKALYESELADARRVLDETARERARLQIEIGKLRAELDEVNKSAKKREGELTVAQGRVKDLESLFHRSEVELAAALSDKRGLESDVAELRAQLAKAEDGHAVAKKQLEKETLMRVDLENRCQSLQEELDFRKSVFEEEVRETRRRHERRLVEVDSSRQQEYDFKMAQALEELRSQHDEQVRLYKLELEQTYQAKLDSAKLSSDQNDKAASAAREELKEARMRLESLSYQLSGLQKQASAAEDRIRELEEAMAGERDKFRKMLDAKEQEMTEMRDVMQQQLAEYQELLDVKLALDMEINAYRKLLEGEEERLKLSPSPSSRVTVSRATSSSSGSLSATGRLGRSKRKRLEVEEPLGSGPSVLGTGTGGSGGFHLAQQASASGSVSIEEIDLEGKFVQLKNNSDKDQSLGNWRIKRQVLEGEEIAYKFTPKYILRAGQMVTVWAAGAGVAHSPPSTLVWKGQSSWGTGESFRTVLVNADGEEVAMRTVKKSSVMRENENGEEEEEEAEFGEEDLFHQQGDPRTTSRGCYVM
UniProt Q96EM0: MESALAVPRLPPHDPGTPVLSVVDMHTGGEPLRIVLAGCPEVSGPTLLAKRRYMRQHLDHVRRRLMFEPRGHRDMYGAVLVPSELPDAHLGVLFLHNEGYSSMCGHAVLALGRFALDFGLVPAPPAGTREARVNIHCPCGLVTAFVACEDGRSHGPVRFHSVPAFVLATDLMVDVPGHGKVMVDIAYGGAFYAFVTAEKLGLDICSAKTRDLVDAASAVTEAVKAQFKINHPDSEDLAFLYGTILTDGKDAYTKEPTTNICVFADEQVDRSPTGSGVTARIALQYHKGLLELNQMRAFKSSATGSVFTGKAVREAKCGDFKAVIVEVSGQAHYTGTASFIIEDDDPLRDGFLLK
UniProt O43813, whole entry, looked up: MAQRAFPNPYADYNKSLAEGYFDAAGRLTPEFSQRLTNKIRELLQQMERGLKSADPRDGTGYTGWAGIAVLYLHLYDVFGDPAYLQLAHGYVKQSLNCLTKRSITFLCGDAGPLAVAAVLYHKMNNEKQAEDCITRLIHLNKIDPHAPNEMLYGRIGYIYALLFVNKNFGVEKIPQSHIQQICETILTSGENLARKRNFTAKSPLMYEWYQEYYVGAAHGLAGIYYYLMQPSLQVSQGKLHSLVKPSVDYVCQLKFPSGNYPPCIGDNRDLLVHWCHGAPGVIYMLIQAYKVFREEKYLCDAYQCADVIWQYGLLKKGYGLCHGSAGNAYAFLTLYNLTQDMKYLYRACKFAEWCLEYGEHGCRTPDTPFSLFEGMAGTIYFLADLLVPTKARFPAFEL
UniProt Q9Y2U8: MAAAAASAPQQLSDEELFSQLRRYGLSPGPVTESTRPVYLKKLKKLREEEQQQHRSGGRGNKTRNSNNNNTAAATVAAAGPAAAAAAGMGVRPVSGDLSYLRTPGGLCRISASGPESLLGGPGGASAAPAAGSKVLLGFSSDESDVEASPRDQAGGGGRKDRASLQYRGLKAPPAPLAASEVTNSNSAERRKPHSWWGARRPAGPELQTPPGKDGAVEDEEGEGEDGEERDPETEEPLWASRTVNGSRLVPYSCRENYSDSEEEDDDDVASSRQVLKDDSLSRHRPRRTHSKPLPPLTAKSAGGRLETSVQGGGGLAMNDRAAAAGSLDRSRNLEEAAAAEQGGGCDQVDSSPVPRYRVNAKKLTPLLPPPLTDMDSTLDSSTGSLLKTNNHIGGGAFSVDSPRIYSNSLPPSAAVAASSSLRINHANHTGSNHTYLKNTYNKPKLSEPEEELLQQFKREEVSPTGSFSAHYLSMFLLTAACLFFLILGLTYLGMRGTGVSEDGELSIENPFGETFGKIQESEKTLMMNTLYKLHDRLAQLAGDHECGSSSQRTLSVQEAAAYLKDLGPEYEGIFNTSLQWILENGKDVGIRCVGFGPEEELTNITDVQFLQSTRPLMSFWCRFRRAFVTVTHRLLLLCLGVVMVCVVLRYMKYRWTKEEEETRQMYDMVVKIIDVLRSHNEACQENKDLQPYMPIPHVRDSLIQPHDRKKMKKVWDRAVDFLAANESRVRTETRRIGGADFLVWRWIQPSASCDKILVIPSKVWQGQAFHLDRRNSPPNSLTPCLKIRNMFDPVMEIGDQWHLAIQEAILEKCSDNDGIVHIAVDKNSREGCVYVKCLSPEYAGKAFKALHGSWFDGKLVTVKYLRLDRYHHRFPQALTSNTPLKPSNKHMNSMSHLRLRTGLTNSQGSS
UniProt Q9H9P8: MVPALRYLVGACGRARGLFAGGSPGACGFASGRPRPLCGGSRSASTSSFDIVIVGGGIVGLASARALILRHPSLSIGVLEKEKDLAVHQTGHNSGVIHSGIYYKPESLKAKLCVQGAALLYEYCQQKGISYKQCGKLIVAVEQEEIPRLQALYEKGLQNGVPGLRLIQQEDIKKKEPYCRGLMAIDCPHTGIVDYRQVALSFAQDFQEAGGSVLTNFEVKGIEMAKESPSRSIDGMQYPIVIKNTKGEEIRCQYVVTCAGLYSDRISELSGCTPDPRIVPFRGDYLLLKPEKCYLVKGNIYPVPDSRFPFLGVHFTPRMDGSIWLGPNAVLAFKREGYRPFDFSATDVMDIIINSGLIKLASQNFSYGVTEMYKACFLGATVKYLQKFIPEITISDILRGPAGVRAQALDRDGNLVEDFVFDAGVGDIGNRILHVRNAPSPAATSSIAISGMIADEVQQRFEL

Assays:
Test in all cases: log2 fold change, soluble protein after heating vs DMSO (PISA); higher = thermal stabilisation; K562 cells, 10 uM, 30 min; active = over 0.2 and 3.5 SD of the protein, either way, in both replicates (recomputed)
erlotinib = compound: C#Cc1cccc(Nc2ncnc3cc(OCCOC)c(OCCOC)cc23)c1 [erlotinib]
Procedure, shortened: (§1)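 Values are thermal stability changes relative to control samples and are taken from duplicates. They are stated as log2 fold changes. Before quantification by TMTpro 16plex LC-MS/MS with equalised channel sums, K562 cells at 2×10^6 cells/mL were treated with 10 μM compound for 30 min, heated in aliquots for 3 min across 48°C-58°C, pooled, extracted in PBS with 0.5% NP-40 at 4°C, and centrifuged at 21,000xg for 90 min to give the soluble supernatant.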

[1] = compound: C/C(=N\NC(=O)C1=CC(=CC=C1)S(=O)(=O)N2CCOCC2)/C3=C(C=CC(=C3)Cl)O
Procedure, shortened: as §1

[2] = compound: C1=CC(=C(C=C1Cl)C2=NC3=NC=CN=C3C(=N2)NC4=CC=NC=C4)F
Procedure, shortened: as §1

[3] = compound: C1=CC(=CC=C1C2=NC3=C(N2)C=C(C=C3)C(=O)N)OC4=CC=C(C=C4)Cl
Procedure, shortened: as §1

[4] = compound: C1=CC2=C(C=CC(=C2)/C=C\3/C(=O)NC(=NCC4=CC=CS4)S3)N=C1
Procedure, shortened: as §1

[5] = compound: C1=CC2=NC=CN=C2C=C1/C=C/3\C(=O)NC(=O)S3
Procedure, shortened: as §1

[6] = compound: C1=CC=C(C=C1)C2=NC(=C(N2)C3=CC=NC=C3)C4=CC(=C(C=C4)Cl)O
Procedure, shortened: as §1

[7] = compound: C1=CC=C2C(=C1)C3=NNC4=CC=CC(=C43)C2=O
Procedure, shortened: as §1

[8] = compound: C1CCN(C1)C(=O)NC2=CC=CC(=C2)NC3=NC=C(C(=N3)NCCC4=CN=CN4)Br
Procedure, shortened: as §1

[9] = compound: C1CN(CCC1(CC2=CC=C(C=C2)Cl)N)C3=NC=NC4=C3C=CN4
Procedure, shortened: as §1

IRAK-1-4 Inhibitor I = compound: C1COCCN1CCN2C3=CC=CC=C3N=C2NC(=O)C4=CC(=CC=C4)[N+](=O)[O-] [IRAK-1-4 Inhibitor I]
Procedure, shortened: as §1

ibrutinib = compound: C=CC(=O)N1CCC[C@@H](n2nc(-c3ccc(Oc4ccccc4)cc3)c3c(N)ncnc32)C1 [ibrutinib]
Procedure, shortened: as §1

[10] = compound: CC(=O)c1cnc2ccc(-c3cc(Cl)c(O)c(Cl)c3)nc2c1N[C@H]1CC[C@H](CN(C)C)CC1
Procedure, shortened: as §1

ralimetinib = compound: CC(C)(C)Cn1c(N)nc2ccc(-c3[nH]c(C(C)(C)C)nc3-c3ccc(F)cc3)nc21 [ralimetinib]
Procedure, shortened: as §1

[11] = compound: CC(C)(O)CC(=O)NCCn1ccc2ncnc(Nc3ccc(Oc4cccc(C(F)(F)F)c4)c(Cl)c3)c21
Procedure, shortened: as §1

[12] = compound: CC(C)C1=C2N=C(C=C(N2N=C1)NCC3=CC=CC=C3)NCCCCCCN
Procedure, shortened: as §1

[13] = compound: CC(C)C[C@@H](C=O)NC(=O)[C@H](CC(C)C)NC(=O)[C@H](CC(C)C)NC(=O)OCc1ccccc1
Procedure, shortened: as §1

pinometostat = compound: CC(C)N(C[C@H]1O[C@@H](n2cnc3c(N)ncnc32)[C@H](O)[C@@H]1O)[C@H]1C[C@@H](CCc2nc3cc(C(C)(C)C)ccc3[nH]2)C1 [pinometostat]
Procedure, shortened: as §1

[14] = compound: CC1=C(C(CC(=O)N1)C2=CC=C(C=C2)C(F)(F)F)C(=O)NC3=C(C=C4C(=C3)C=NN4)F
Procedure, shortened: as §1

[15] = compound: CC1=C(C2=C(C=C1)C(=O)C3=CC=CC=C3N2CCCN)C
Procedure, shortened: as §1

Measured: log2 fold change

LARS (UniProt Q9P2J5)
inactive: erlotinib -0.025 | [1] -0.03 | [2] -0.252 | [3] -0.011 | [4] -0.016 | [5] 0.005 | [6] -0.04 | [7] 0.013 | [8] 0.065 | [9] -0.123 | IRAK-1-4 Inhibitor I -0.102 | ibrutinib 0.002 | [10] 0.146 | ralimetinib 0.2 | [11] 0.082 | [12] -0.201 | [13] 0.1 | pinometostat 0.355 | [14] 0.004 | [15] -0.036

LMAN2 (UniProt Q12907)
inactive: erlotinib -0.03 | [1] -0.01 | [2] 0.015 | [3] 0.015 | [4] 0.037 | [5] 0.02 | [6] -0.018 | [7] 0.029 | [8] 0.008 | [9] 0.016 | IRAK-1-4 Inhibitor I 0.034 | ibrutinib -0.012 | [10] 0.021 | ralimetinib -0.008 | [11] -0.009 | [12] -0.014 | [13] 0.029 | pinometostat -0.013 | [14] -0.019 | [15] 0.029

LIMK2 isoform 3 (UniProt P53671)
inactive: erlotinib 0.072 | [1] -0.225 | [2] 0.005 | [3] -0.019 | [4] 0.054 | [5] 0.028 | [6] 0.042 | [7] 0.097 | [8] 0.151 | [9] 0.04 | IRAK-1-4 Inhibitor I 0.097 | ibrutinib 0.062 | [10] -0.11 | ralimetinib -0.048 | [11] 0.025 | [12] 0.14 | [13] -0.025 | pinometostat -0.153 | [14] 0.287 | [15] 0.058

LRBA, A0A494BZW2
inactive: erlotinib 0.111 | [1] 0.022 | [2] 0.283 | [3] 0.124 | [4] -0.055 | [5] 0.061 | [6] -0.105 | [7] -0.013 | [8] 0.097 | [9] 0.189 | IRAK-1-4 Inhibitor I 0.02 | ibrutinib 0.018 | [10] -0.009 | ralimetinib 0.01 | [11] 0 | [12] -0.436 | [13] 0.041 | pinometostat 0.076 | [15] -0.237

LPIN1 isoform 7 (UniProt Q14693)
active: [10] -0.379
inactive: erlotinib 0.027 | [1] 0.068 | [2] 0.059 | [3] -0.043 | [4] -0.001 | [5] -0.102 | [6] -0.031 | [7] 0.015 | [8] -0.033 | [9] 0.025 | IRAK-1-4 Inhibitor I 0.035 | ibrutinib 0.029 | ralimetinib 0.016 | [11] -0.033 | [12] -0.054 | [13] 0.046 | pinometostat 0.082 | [15] 0.006

LDLR (UniProt P01130)
inactive: erlotinib -0.035 | [1] 0.003 | [2] -0.04 | [3] 0.03 | [4] -0.018 | [5] 0.025 | [6] 0.011 | [7] -0.113 | [8] 0.025 | [9] 0.051 | IRAK-1-4 Inhibitor I 0.03 | ibrutinib -0.015 | [10] -0.106 | ralimetinib -0.025 | [11] 0.072 | [12] -0.009 | [13] 0.171 | pinometostat -0.011 | [15] -0.058

LAGE3 (UniProt Q14657)
inactive: erlotinib 0.096 | [1] -0.018 | [2] 0.131 | [3] -0.047 | [4] 0.102 | [5] 0.051 | [6] 0.023 | [7] 0.033 | [8] -0.024 | [9] 0.068 | IRAK-1-4 Inhibitor I 0.025 | ibrutinib -0.028 | [10] -0.093 | ralimetinib -0.02 | [11] -0.009 | [12] 0.041 | [13] -0.067 | pinometostat -0.075 | [14] 0.017 | [15] 0.023

LAMB1 (UniProt P07942)
inactive: erlotinib 0.025 | [1] 0.077 | [2] -0.021 | [3] 0.002 | [4] -0.009 | [5] 0.065 | [6] 0.026 | [7] 0.007 | [8] -0.035 | [9] 0.039 | IRAK-1-4 Inhibitor I 0.034 | ibrutinib -0.089 | [10] 0.017 | ralimetinib -0.03 | [11] -0.012 | [12] -0.051 | [13] 0.012 | pinometostat 0.032 | [14] -0.006 | [15] -0.056

LRPPRC (UniProt P42704)
active: [12] -1.09
inactive: erlotinib 0.265 | [1] 0.526 | [2] 0.002 | [3] -0.255 | [4] 0.204 | [5] -0.148 | [6] 0.185 | [7] -0.223 | [8] -0.133 | [9] -0.197 | IRAK-1-4 Inhibitor I -0.18 | ibrutinib -0.013 | [10] -0.439 | ralimetinib -0.144 | [11] -0.891 | [13] 0.059 | pinometostat 0 | [15] -0.252

LMNB2 (UniProt Q03252)
inactive: erlotinib 0.027 | [1] 0.062 | [2] 0.001 | [3] 0.025 | [4] -0.042 | [5] 0.099 | [6] -0.066 | [7] -0.186 | [8] -0.167 | [9] 0.001 | IRAK-1-4 Inhibitor I -0.026 | ibrutinib -0.017 | ralimetinib -0.018 | [11] 0.052 | [12] -0.093 | [13] 0.03 | pinometostat 0.011 | [15] -0.022
active: [10] -0.214

L3HYPDH (UniProt Q96EM0)
inactive: erlotinib 0.06 | [1] 0.055 | [2] 0.052 | [3] -0.03 | [4] 0.042 | [5] -0.011 | [6] 0.084 | [7] -0.019 | [8] -0.021 | [9] 0.072 | IRAK-1-4 Inhibitor I 0.012 | ibrutinib 0.017 | [10] -0.017 | ralimetinib -0.004 | [11] -0.044 | [12] -0.012 | [13] -0.037 | pinometostat 0.018 | [14] -0.026 | [15] 0.049

LANCL1 (UniProt O43813)
inactive: erlotinib -0.034 | [1] 0.015 | [2] 0.043 | [3] 0.001 | [4] -0.044 | [5] 0.009 | [6] -0.003 | [7] -0.021 | [8] -0.025 | [9] 0.022 | IRAK-1-4 Inhibitor I 0.038 | ibrutinib 0.05 | [10] -0.002 | ralimetinib -0.027 | [11] -0.034 | [12] 0.072 | [13] -0.008 | pinometostat -0.019 | [14] 0.111 | [15] 0

LDHA isoform 3 (UniProt P00338)
inactive: erlotinib -0.016 | [1] 0 | [2] 0.031 | [3] 0.021 | [4] -0.008 | [5] -0.002 | [6] -0.017 | [7] -0.008 | [8] -0.018 | [9] 0.05 | IRAK-1-4 Inhibitor I 0.068 | ibrutinib 0.019 | [10] 0.01 | ralimetinib -0.026 | [11] -0.017 | [12] 0.083 | [13] -0.022 | pinometostat -0.032 | [14] -0.013 | [15] 0.027

LEMD3 (UniProt Q9Y2U8)
inactive: erlotinib 0.102 | [1] 0.091 | [2] 0.109 | [3] -0.007 | [4] 0.003 | [5] -0.05 | [6] -0.01 | [7] 0.169 | [8] -0.063 | [9] -0.029 | IRAK-1-4 Inhibitor I 0.04 | ibrutinib 0.03 | [10] -0.173 | ralimetinib -0.082 | [11] -0.09 | [12] -0.056 | [13] 0.039 | pinometostat -0.026 | [15] 0.101

L2HGDH (UniProt Q9H9P8)
inactive: erlotinib 0.027 | [1] 0.169 | [2] 0.009 | [3] 0.043 | [4] 0.07 | [5] 0.01 | [6] 0.05 | [7] 0.093 | [8] -0.005 | [9] -0.007 | IRAK-1-4 Inhibitor I 0.095 | ibrutinib 0.028 | [10] -0.065 | ralimetinib 0.003 | [11] -0.092 | [12] -0.069 | [13] -0.026 | pinometostat 0 | [15] 0.029

LARP1 (UniProt Q6PKG0)
active: [15] -0.303
inactive: erlotinib -0.051 | [1] 0.002 | [2] -0.11 | [3] 0.085 | [4] -0.025 | [5] -0.001 | [6] -0.081 | [7] -0.067 | [8] 0.046 | [9] -0.172 | IRAK-1-4 Inhibitor I -0.131 | ibrutinib 0.009 | [10] -0.059 | ralimetinib 0.031 | [11] 0 | [12] -0.088 | [13] 0.036 | pinometostat 0.109
